# According to PubChem BioAssay AID485353 (National Center for Advancing Translational Sciences (NCATS), 2010):
# The campaign covered roughly 330,000 compounds. About 610 (0.18%) were called active. Inconclusive means that the source gave no clear call. Such entries were picked first, then a sample of the others. Calls follow the shape of the full dose curve. Potencies beside an inconclusive call are fits to weak or partial responses and may not hold up.
# Assay: qHTS of Yeast-based Assay for SARS-CoV PLP; also: nearly all actives have a fitted effect of over 55% in size
# Conditions: S. cerevisiae expressing SARS-CoV PLpro; Potency: growth rescue; series mostly up to 32.9 µM
# Potency is read from the fitted curve at half-maximal effect.
row,SMILES,Potency
1,COc1cccc(C(=O)/C=C/Nc2ccc(S(=O)(=O)Nc3ccc(C(C)=O)cc3)cc2)c1,"inconclusive: 3.16 µM [activator, partial curve]"
2,Cc1ccc(S(=O)(=O)N2CCCCC2)cc1NC(=O)CSc1nc(N)cc(=O)[nH]1,inactive
3,CC(OC(=O)CNC(=O)c1ccc2c(c1)OCO2)C(=O)NCCC1=CCCCC1 (stereo unspecified),"inconclusive: 4.47 µM [activator, single point]"
4,O=C(Cc1ccc(Cl)cc1)NCC(=O)N1CCN(Cc2ccccc2)CC1,"inconclusive: 2.82 µM [activator, single point]"
5,NCCCC[C@H](N)c1nnc([C@H](CC(=O)O)NC(=O)C2CCNCC2)o1,inactive
6,O=C1OCC2OC(O)C(O)C(O)C2OC(=O)c2cc(O)c(O)c(O)c2-c2c(O)c(O)c3oc(=O)c4c(c(O)c(O)c5oc(=O)c2c3c54)-c2c1cc(O)c(O)c2O (stereo unspecified),"inconclusive: 0.794 µM [activator, full curve]"
7,O=C(NNC(=O)c1cc(Cl)ccc1O)c1ccc(NS(=O)(=O)c2cccs2)cc1,"inconclusive: 20 µM [activator, single point]"
8,COC(=O)C1=C(C)N(Cc2ccccc2)C(=NCC(C)C)N[C@H]1c1ccc(Br)cc1,"inconclusive: 3.16 µM [activator, single point]"
9,O=C(Nc1c2c(nn1-c1ccccc1)CS(=O)(=O)C2)c1ccc2c(c1)OCO2,"inconclusive: 3.55 µM [activator, single point]"
10,O=[N+]([O-])c1ccc(Cl)c(/C=N/n2c(-c3cccnc3)n[nH]c2=S)c1,"inconclusive: 20 µM [activator, single point]"
11,COc1ccc(OC)c(S(=O)(=O)N/N=C(/C)c2c[nH]c3ccccc23)c1,"inconclusive: 2.24 µM [activator, single point]"
12,CCCCNC(=O)c1ccc2c(c1)S(=O)(=O)c1ccccc1C2=O,"inconclusive: 20 µM [activator, single point]"
13,COc1cc(C(C)=O)ccc1COc1ccc(C(=O)OCC(=O)NC2CCS(=O)(=O)C2)cc1OC (stereo unspecified),"inconclusive: 11.2 µM [activator, partial curve]"
14,CC(C)CNC(=S)NC(=O)c1ccc(F)cc1,"inconclusive: 20 µM [activator, single point]"
15,Cc1sc(NC(=O)CSc2nnc(C(C)C)n2C)c(C#N)c1C,"inconclusive: 1 µM [activator, full curve, poor fit]"
16,CCCc1nnc(NC(=O)CCC(=O)Nc2ccc(F)cc2)s1,inactive
17,O=C(NCc1cnc2ccccn12)C1CCC(=O)N(Cc2cccc(F)c2)C1 (stereo unspecified),"inconclusive: 4.47 µM [activator, single point]"
18,CC(C)CCNC(=O)C1CCN(S(=O)(=O)c2ccc3nc4c(c(C(=O)O)c3c2)CCCCC4)CC1,"inconclusive: 17.8 µM [activator, single point]"
19,CNC(=S)N1N=C(c2ccc(C)cc2)CC1c1ccc(OC)c(OC)c1 (stereo unspecified),"inconclusive: 0.794 µM [activator, full curve, poor fit]"
20,COc1ccc(C(CNC(=O)COc2ccc(Cl)cc2C)N2CCCCC2)cc1 (stereo unspecified),inactive
21,Cc1nc(CNC(=O)CC2C(=O)NCCN2Cc2ccoc2)nc2c1CCCC2 (stereo unspecified),inactive
22,CCC1(C)Cc2ccccc2-c2nc3n(c(=O)c21)CCCCC3 (stereo unspecified),inactive

row,SMILES,Potency
1,COc1ccc(/C=N/NC(=O)c2nc(-c3ccccc3)n(-c3ccccc3)n2)c(O)c1,active: 2.82 µM
2,COc1cccc(NC(=S)N2CCN(C(c3ccccc3)c3ccccc3)CC2)c1,"inconclusive: 11.2 µM [activator, single point]"
3,Cn1c(=O)c2c(SCC(=O)N3CCCC3)nc(CC(C)(C)C)nc2n(C)c1=O,"inconclusive: 12.6 µM [activator, partial curve]"
4,COc1cc2c(cc1NS(=O)(=O)N1CCCC1)oc1ccccc12,"inconclusive: 12.6 µM [activator, single point]"
5,CCCCOc1ccc(NC(=O)C(=O)NCCCn2ccnc2)cc1,"inconclusive: 22.4 µM [activator, single point]"
6,O=C(CCCn1cncn1)N1CCCC(N2CCN(c3ccc(F)cc3)CC2)C1 (stereo unspecified),"inconclusive: 4.47 µM [activator, single point]"
7,O=C(CCl)NCCCCCCCCCNC(=O)CCl,"inconclusive: 6.31 µM [activator, partial curve]"
8,O=C(CCc1ccc(S(=O)(=O)N2CCOCC2)cc1)N/N=C/c1ccc(O)c(O)c1O,"inconclusive: 11.2 µM [activator, single point]"
9,COc1ccc(CCNC(=S)N2CCC(Cc3ccccc3)CC2)cc1OC,inactive
10,O=C(c1ccccc1[N+](=O)[O-])N1CCCC(C(=O)N2CCCCCC2)C1 (stereo unspecified),"inconclusive: 14.1 µM [activator, single point]"
11,CC/C(=N\NC(=O)c1c(-c2ccccc2)noc1C)c1ccc(C)o1,inactive
12,CC(C)CNC(=O)COC(=O)c1cc(S(=O)(=O)N(C)C)ccc1N1CCCC1,inactive
13,Cc1cc(=O)oc2c(C)c(OC(C)C(=O)NCCCN3CCCC3=O)ccc12 (stereo unspecified),"inconclusive: 3.55 µM [activator, single point]"
14,CC(=O)NS(=O)(=O)c1ccc(N=NN2CCOCC2)cc1,"inconclusive: 4.47 µM [activator, partial curve]"
15,CCOC(=O)c1c(-c2ccccc2)oc2ccc(OCC(O)CN(C)C)cc12 (stereo unspecified),inactive
16,CC(=O)Oc1ccc(CCC(C)OC(C)=O)cc1 (stereo unspecified),"inconclusive: 11.2 µM [activator, single point]"
17,Cc1sc2nc(SCC(=O)NCc3ccco3)n(CCc3ccccc3)c(=O)c2c1C,"inconclusive: 4.47 µM [activator, single point]"
18,CCN1CCN(c2ncc(C(=O)N3CCCc4ccccc43)c3ccccc23)CC1,inactive
19,COc1ccc(C)cc1S(=O)(=O)N(CC(=O)NC1CCCC1)c1ccc(F)cc1,"inconclusive: 10 µM [activator, single point]"
20,CS(=O)(=O)N(CC(=O)Nc1ccccc1Sc1ccccc1)c1cccc(Br)c1,"inconclusive: 4.47 µM [activator, single point]"
21,Cc1cc(C2=NNC(=NC3CC3)SC2)c(C)n1Cc1ccco1,active: 10 µM
22,O=C(O)CCCN1C(=O)/C(=C\c2ccccc2OCc2ccccc2)SC1=S,inactive

row,SMILES,Potency
1,COc1cc2c(cc1OC)CN(S(=O)(=O)c1ccccc1F)CC2,inactive
2,CCOC(=O)C1CCN(C(=O)c2ccccc2NS(=O)(=O)c2cc(C)ccc2C)CC1,"inconclusive: 10 µM [activator, single point]"
3,O=C(COC(=O)c1cc(=O)[nH]c2ccccc12)NC(=O)NC1CCCCC1,"inconclusive: 1.78 µM [activator, partial curve]"
4,Cc1nn(Cc2ccccc2Cl)c(C)c1NC(=O)CCCn1nc([N+](=O)[O-])c(Cl)c1C,"inconclusive: 22.4 µM [activator, partial curve]"
5,CCOC(=O)c1nc(NCc2ccccc2F)c2ccccc2n1,inactive
6,CCN(CC)S(=O)(=O)c1cccc(C(=O)N/N=C(\C)c2ccc(O)cc2O)c1,active: 3.55 µM
7,COc1cc2[nH]c3c(=O)n(CCN4CCCCC4)cnc3c2cc1OC,"inconclusive: 20 µM [activator, single point]"
8,O=C1CN(C(=O)COC(=O)c2ccccc2NC(=O)c2ccco2)c2ccccc2N1,"inconclusive: 4.47 µM [activator, single point]"
9,Cc1ccc(C2(O)CCN3CCCCC32)cc1 (stereo unspecified),"inconclusive: 15.8 µM [activator, single point]"
10,O=C(O)c1ccc(NCc2ccc3c(c2)OCO3)cc1,"inconclusive: 3.16 µM [activator, single point]"
11,CCOC(=O)N1CCC(=NNC(=O)c2cc3ccccc3cc2O)CC1,"inconclusive: 4.47 µM [activator, single point]"
12,CCc1ccc(N2CC(C(=O)N/N=C/c3cccc([N+](=O)[O-])c3)CC2=O)cc1 (stereo unspecified),"inconclusive: 8.91 µM [activator, partial curve]"
13,CCn1cc(CNC(=O)C2CCC(=O)N(CCc3cccc(F)c3)C2)cn1 (stereo unspecified),"inconclusive: 20 µM [activator, single point]"
14,CC(C)(C)NC(=O)CSc1nc(O)cc(=O)[nH]1,"inconclusive: 20 µM [activator, single point]"
15,O=S(=O)(c1ccccc1)c1nc(-c2ccco2)oc1NCc1cccnc1,"inconclusive: 20 µM [activator, single point]"
16,O=c1[nH]c(C2C3CC4CC(C3)CC2C4)nc2ccccc12 (stereo unspecified),active: 2.82 µM
17,CCOC(=O)c1cc(CC)sc1NC(=O)c1cccc(N2C(=O)CCC2=O)c1,"inconclusive: 0.355 µM [activator, partial curve, poor fit]"
18,CCC(=O)N1CC2(CC(c3cccc(NC(=O)CC(c4ccccc4)c4ccccc4)c3)=NO2)C[C@H]1C(N)=O (stereo partly specified),inactive
19,Cc1ccc(NC(=O)CSc2ccc3nnc(-c4cccnc4)n3n2)cc1,"inconclusive: 3.55 µM [activator, single point]"
20,CCOc1cccc(C(=O)N/N=C/c2coc3ccccc3c2=O)c1,"inconclusive: 17.8 µM [activator, single point]"
21,Cc1cc(NC(=O)c2cc(-c3cccc(Cl)c3)on2)no1,"inconclusive: 3.16 µM [activator, single point]"
22,COc1cccc(C2/C(=C(\O)c3ccc4c(c3)OCCO4)C(=O)C(=O)N2Cc2cccnc2)c1 (stereo unspecified),"inconclusive: 3.16 µM [activator, single point]"

# Some of the entries so far, with tabs:
row	SMILES	Potency
12	CCc1ccc(N2CC(C(=O)N/N=C/c3cccc([N+](=O)[O-])c3)CC2=O)cc1 (stereo unspecified)	inconclusive: 8.91 µM [activator, partial curve]
13	CCn1cc(CNC(=O)C2CCC(=O)N(CCc3cccc(F)c3)C2)cn1 (stereo unspecified)	inconclusive: 20 µM [activator, single point]
